# Measured values: PubChem BioAssay AID901 (National Center for Advancing Translational Sciences (NCATS), 2007)
# The list shows a part of the results. The main result of the screen is listed elsewhere. These columns were measured beside it and carry no call. Most of these compounds were active or inconclusive in the main read-out, so they are no random draw. Potencies come from curve fits of mixed quality, noted in brackets.
# Assay: qHTS Assay for Identifying the Cell-Membrane Permeable IMPase Inhibitors
# Conditions: CHO-M1 cells, IP1 accumulation, HTRF TR-FRET ratio; measured here: donor channel 620 nm AC50
row,Compound,AC50
1,Cn1nnnc1SCC(=O)NCC(=O)c1ccccc1,"631 nM [falling, partial curve]"
2,CCCn1nc2ccccc2c1P(=N)(N1CCOCC1)N1CCOCC1,"794 nM [rising, full curve, poor fit]"
3,Cc1sc2ncnc(SCC(=O)NNC(=O)COc3cccc4ccccc34)c2c1C,"6310 nM [rising, single point]"
4,CCOc1ccccc1C(=O)OCC(=O)Nc1ccc(OC(F)F)cc1,"31600 nM [falling, single point]"
5,CCOC(=O)CSC1=C(C#N)C(c2ccc(Cl)cc2)C(C(=O)OC)C(=O)N1 (stereo not drawn),"31.6 nM [falling, full curve, poor fit]"
6,CCOC(=O)C1CCCN(Cc2ccc3c(c2)OCO3)C1 (stereo not drawn),"251 nM [falling, full curve]"
7,O=C(Nc1ccc(Br)cc1)C1CCC(=O)N1Cc1ccccc1Cl (stereo not drawn),"3980 nM [rising, single point]"
8,COc1ccc(Nc2ncnc3sc(-c4ccccc4)cc23)cc1,"3.98 nM [rising, full curve, poor fit]"
9,CC(=O)Nc1ccc(S(=O)(=O)N2CCN(C(=O)CCC3CCCC3)CC2)cc1,"31600 nM [falling, single point]"
10,CCc1ccc(S(=O)(=O)Nc2cc3c(C(=O)OCc4ccccc4)c(C)oc3c3ccccc23)cc1,"224 nM [falling, full curve, poor fit]"
11,CC(=O)c1ccc(N2CCN(C(=O)C3CCCN(S(=O)(=O)c4ccc(Br)s4)C3)CC2)cc1 (stereo not drawn),"17800 nM [rising, single point]"
12,Cn1c(=O)c2c(SCc3ccccc3)nc(-c3ccco3)nc2n(C)c1=O,"31600 nM [rising, single point]"
13,COc1ccc(-c2ccc3c(N)c(C(=O)Nc4ccc(C(F)(F)F)cc4)sc3n2)cc1OC,"35500 nM [rising, single point]"
14,Cc1ccc(NC(=S)NNC(=O)Cn2nc([N+](=O)[O-])cc2C)cc1,"1580 nM [falling, full curve, poor fit]"
15,Cc1ccc(NC(=O)N2Cc3ccccc3CC2C(=O)NC(C)(C)C)cc1 (stereo not drawn),"3.98 nM [rising, full curve, poor fit]"
16,CN(C)S(=O)(=O)N1CCc2ccccc21,"631 nM [falling, full curve, poor fit]"
17,COc1cc(Cl)c(C)cc1NC(=O)c1cn(C2CCCC2)c(=O)c2c1c1ccccc1n2C,"5620 nM [rising, single point]"
18,O=C(CSc1nc2nc(-c3cccs3)cc(C(F)(F)F)c2c(=O)[nH]1)NCc1ccco1,"12600 nM [rising, partial curve, poor fit]"
19,N#C/C(C(N)=O)=c1/ccc2c(c1)N1C3=C(CCCC3)CC3CCCCC31N=2 (stereo not drawn),"12600 nM [falling, partial curve]"
20,Cc1occc1-c1nnc(SCC(=O)N2CCCc3ccccc32)n1Cc1ccco1,"2000 nM [falling, partial curve]"
21,CC(C)CC(NC(=O)C(CC(C)C)NC(=O)OC(C)(C)C)C(N)=O (stereo not drawn),"7.94 nM [falling, full curve, poor fit]"

row,Compound,AC50
1,O=C1N(Cc2ccccc2)CCCC12CCCN(Cc1ccccc1)C2=O,"25.1 nM [falling, full curve, poor fit]"
2,OCCN(Cc1ccccc1)Cc1cccc(C(F)(F)F)c1,"891 nM [falling, partial curve, poor fit]"
3,CCCCOc1ccc(C(=O)Nc2ccc(S(=O)(=O)Nc3nc(C)cc(C)n3)cc2)cc1,"10000 nM [falling, partial curve, poor fit]"
4,CC(C)(C)C1CCc2c(sc(NC(=O)c3ccco3)c2C(N)=O)C1 (stereo not drawn),"1580 nM [rising, partial curve, poor fit]"
5,O=C(CSc1nnnn1C1CCCC1)N1CCCc2ccccc21,"31600 nM [falling, single point]"
6,O=C(Nc1ccc(-c2nnc(-c3ccccc3)o2)cc1)C1CCCO1 (stereo not drawn),"20 nM [falling, full curve]"
7,O=C(C1CCN(C2CC(=O)N(c3ccc(F)cc3)C2=O)CC1)N1CCOCC1 (stereo not drawn),"631 nM [falling, full curve]"
8,CCC(=O)Nc1ccc2c(c1)nc1n2CCSC1,"63.1 nM [rising, full curve, poor fit]"
9,COc1ccc(Cl)cc1NC(=O)CSC1=Nc2ccccc2C2=NC(CCC(=O)NCc3ccc(F)cc3)C(=O)N12 (stereo not drawn),"22400 nM [rising, single point]"
10,CCc1nc2ccccc2c(C(=O)OCCN2C(=O)c3ccccc3C2=O)c1C,"3.16 nM [rising, full curve, poor fit]"
11,N#Cc1cnc(SCC(=O)Nc2ccccc2C(F)(F)F)nc1N,"1000 nM [falling, full curve]"
12,O=C(NCc1cccnc1)c1ccc(COc2cccc3ccccc23)o1,"25100 nM [rising, partial curve]"
13,COc1ccc(CN(C(=O)c2ccco2)c2ccc(Br)cc2)cc1OC,"794 nM [falling, single point]"
14,COc1ccc(N2C(=O)c3ccccc3NC2c2ccc(OC)c(CSc3ccccn3)c2)cc1 (stereo not drawn),"31600 nM [rising, single point]"
15,O=C(OCc1nc2ccccc2s1)C1CCN(S(=O)(=O)c2cccs2)CC1,"1260 nM [falling, full curve, poor fit]"
16,CCOc1ccc(CCNC(=O)Cn2c(-c3nonc3N)nc3ccccc32)cc1OCC,"4470 nM [rising, single point]"
17,CC(C)c1ccc(S(=O)(=O)/N=C2/C=C(Sc3ncn[nH]3)C(=O)c3ccccc32)cc1,"28200 nM [falling, partial curve]"
18,Cc1c(C(=O)Oc2cccc3ccccc23)cnn1-c1ccccc1,"100 nM [falling, full curve, poor fit]"
19,c1ccc2c(-c3ccncc3)c[nH]c2c1,"100 nM [falling, partial curve, poor fit]"
20,CC(C)(C)c1ccc(S(=O)(=O)N2C=CC(C(F)(F)F)=NCC2)cc1,"251 nM [falling, full curve, poor fit]"
21,O=S(=O)(c1ccc2c(c1)N(Cc1ccc(Cl)cc1)C1CCCN21)N1CCOCC1 (stereo not drawn),"3160 nM [rising, full curve]"

# Nothing new here: entries from further up.
row,Compound,AC50
12,O=C(NCc1cccnc1)c1ccc(COc2cccc3ccccc23)o1,"25100 nM [rising, partial curve]"
13,COc1ccc(CN(C(=O)c2ccco2)c2ccc(Br)cc2)cc1OC,"794 nM [falling, single point]"
14,COc1ccc(N2C(=O)c3ccccc3NC2c2ccc(OC)c(CSc3ccccn3)c2)cc1 (stereo not drawn),"31600 nM [rising, single point]"

# The list goes on.

row,Compound,AC50
1,Cc1nc2ccccn2c1C(=O)NCc1ccc2c(c1)OCO2,"31.6 nM [falling, full curve, poor fit]"
2,CCCOC(=O)c1ccc(Oc2c(-c3ccc(O)cc3O)n[nH]c2C)cc1,"398 nM [falling, full curve, poor fit]"
3,O=C1C(Cl)=C(NCC2CCCO2)C(=O)N1c1ccccc1 (stereo not drawn),"3980 nM [rising, full curve, poor fit]"
4,COc1ccc(CC(=O)OCc2nnc(C3COc4ccccc4O3)o2)cc1OC (stereo not drawn),"15800 nM [rising, partial curve]"
5,CC1=C(C(=O)Nc2cccnc2)C(c2ccc(Cl)cc2)n2nc(-c3ccccc3)nc2N1 (stereo not drawn),"10000 nM [falling, partial curve, poor fit]"
6,CCCN1C2=C(C(=O)CCC2)C(c2ccc(O)c(Br)c2)C2=C1CCCC2=O,"1780 nM [rising, full curve, poor fit]"
7,CC(C)=C1C2CC2C2C(C(=O)O)C12 (stereo not drawn),"25100 nM [rising, partial curve, poor fit]"
8,Cc1ccc(NC(=O)c2cnn3c(C(F)F)cc(-c4ccccc4)nc23)cc1F,"31.6 nM [falling, full curve, poor fit]"
9,CCn1c(-c2ccc(F)cc2)cnc1SCC(=O)N1CCc2ccccc21,"11200 nM [rising, partial curve, poor fit]"
10,COc1ccc(S(=O)(=O)N(CCN2CCOCC2)Cc2cc(OC)ccc2OC)cc1,"6310 nM [rising, single point]"
11,NC(=O)c1c(NC(=O)CN2C(=O)CCC2=O)sc2c1CCCCC2,"4470 nM [falling, partial curve, poor fit]"
12,c1ccc(-c2nnc3sc(CN4CCC5(CC4)OCCO5)cn23)cc1,"316 nM [falling, partial curve]"
13,CCCCC(=O)Nc1nn(CC(C)C)c2nc3ccccc3cc12,"7940 nM [falling, full curve, poor fit]"
14,COc1ccc(S(=O)(=O)N2CCC(C(=O)N3CCc4ccccc4C3)CC2)cc1C,"25100 nM [falling, single point]"
15,COCCCn1c(Cc2csc(Nc3cccc(Cl)c3)n2)nnc1SCC(=O)OC,"794 nM [falling, full curve, poor fit]"
16,CCc1ccc(OCc2nc(-c3ccc(OC)c(OC)c3)no2)c(Br)c1,"10000 nM [falling, partial curve, poor fit]"
17,Cc1ccc(NCc2nnc(SCC(=O)N(Cc3ccccc3)C(C)(C)C)o2)c(C)c1,"891 nM [falling, full curve, poor fit]"
18,COc1ccc(S(C)(=O)=O)cc1S(C)(=O)=O,"5010 nM [rising, single point]"
19,CCc1nc(SCC(=O)N2CCC(Cc3ccccc3)CC2)c2c(=O)n(C)c(=O)n(C)c2n1,"31600 nM [rising, single point]"
20,O=C(Cn1c(=O)oc2ccccc21)Nc1nc(-c2ccc(Br)cc2)cs1,"4470 nM [rising, single point]"
21,COC(=O)c1ccc(Oc2ccc3nncn3n2)cc1,"1580 nM [falling, full curve, poor fit]"
